Hit rate of the full screen: of about 320,000 compounds, about 22,000 (6.9%) were called active. This list was built around the results that the source calls inconclusive (neither active nor inactive); the mix of calls is not that of the screen. The call rests on the fitted dose curve; in most records, active means well fitted inhibition curve with a large enough effect; inconclusive means small, poorly fitted or top-dose-only effect, or another doubt; inactive means no such curve, though single readings can be large or run the other way. Where the call is inconclusive, the potency comes from a doubtful curve fit.
Assay: Primary qHTS for delayed death inhibitors of the malarial parasite plastid, 96 hour incubation
Conditions: P. falciparum luciferase reporter growth; series mostly up to 28.7 µM
In short: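 P. falciparum expressing integrated firefly luciferase, in erythrocytes at 2% hematocrit, 0.05% parasitemia, incubated with compounds 96 h at 37 C, 5% CO2. Growth inhibition read as loss of luminescence; two-generation exposure targets delayed-death apicoplast inhibitors.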
Potency means the concentration at half of the fitted maximal effect.

SMILES	Potency
CC(=O)c1ccc(NC(=S)Nc2cccc(S(=O)(=O)Nc3c(C)n(C)n(-c4ccccc4)c3=O)c2)cc1	inactive
COc1ccc(-c2cc(=O)c3ccccc3[nH]2)cc1	inconclusive: 18.5 µM [inhibitor, single point]
c1cnc(N2CCN(c3ccc4ccccc4n3)CC2)nc1	inactive
O=C(NC1(C(F)(F)F)OCCO1)c1ccc(F)cc1	inactive
COC(=O)[C@@]1(Cc2ccc(OC)cc2)[C@H]2c3cc(C(=O)N4CCCC4)n(CCn4cc([N+](=O)[O-])nc4C)c3C[C@H]2CN1C(=O)c1ccccc1	active: 0.586 µM
CC(NC(=O)c1cccs1)c1n[nH]c(=S)n1C (configuration not stated)	inactive
CCCCCCCCCCOCC(O)CN (configuration not stated)	active: 12 µM
COc1ccc(NC(=O)CCSc2nnc(C)s2)cc1	inconclusive: 4.65 µM [inhibitor, partial curve]
CCN(CC)S(=O)(=O)c1cc(NC(=O)Cc2ccsc2)ccc1C	inconclusive: 13.1 µM [inhibitor, single point]
CCCCOC(=O)CSc1n[nH]c(=O)[nH]c1=O	active: 13.1 µM
COc1cccc(-c2cc(C(=O)Nc3cccnc3)c3ccccc3n2)c1	inconclusive: 0.104 µM [inhibitor, full curve, poor fit]
COC(=O)c1ccc2c(c1)S(=O)(=O)NC(=NCCCN1CCOCC1)S2	inconclusive: 16.5 µM [inhibitor, single point]
COc1cccc(-c2nn3c(-c4ccco4)nnc3s2)c1	active: 8.28 µM
COc1ccc(S(=O)(=O)NCc2nc3nc(C)cc(C)n3n2)cc1OC	active: 5.22 µM
CCN(C(=O)c1cccc(S(=O)(=O)N2CCc3ccccc32)c1)C1CCS(=O)(=O)C1 (configuration not stated)	inconclusive: 0.037 µM [inhibitor, full curve, poor fit]
CCOC(=O)c1nnn(-c2nonc2N)c1-c1ccccc1Cl	inactive
Cc1cc2cc(C#N)c(N3CCN(S(C)(=O)=O)CC3)nc2cc1C	inconclusive: 18.5 µM [inhibitor, single point]
O=C(c1ccccn1)N1CCCC(N2CCN(c3ccccc3)CC2)C1 (configuration not stated)	inconclusive: 16.5 µM [inhibitor, single point]
Cc1ccc2c(c1)N(CC(=O)N(Cc1ccccn1)Cc1ccco1)C(=O)C(C(C)C)O2 (configuration not stated)	inconclusive: 13.1 µM [inhibitor, partial curve, poor fit]
CC(=O)Nc1ccc(CN2CCCC(CO)(Cc3ccccc3C)C2)cc1 (configuration not stated)	inactive
Cc1ccc(C(=O)CN2C(=O)c3ccccc3S2(=O)=O)cc1	inactive
Cc1cc(N2C(=O)C(=O)/C(=C(/O)c3ccc(F)cc3)C2c2cccc(Br)c2)no1 (configuration not stated)	inactive
CCCn1c(SCC(=O)Nc2cc(Cl)ccc2Cl)n[nH]c1=O	active: 1.17 µM
O=C(CN(Cc1ccccc1Cl)C(=O)c1ccc(CN2CCOCC2)o1)NCc1ccccc1	active: 6.57 µM

2 entries from above, field by field:
CC(=O)Nc1ccc(CN2CCCC(CO)(Cc3ccccc3C)C2)cc1 (configuration not stated)
  Potency: inactive
Cc1ccc(C(=O)CN2C(=O)c3ccccc3S2(=O)=O)cc1
  Potency: inactive

Further results.

SMILES	Potency
CC1CN(C(=O)c2cc([N+](=O)[O-])cc([N+](=O)[O-])c2)CC(C)O1 (configuration not stated)	inactive
CCOC(=O)COn1c(=O)c(-c2cc3ccccc3o2)[n+]([O-])c2ccccc21	inactive
Nc1cccc(NC(=O)CN2CCOCC2)c1	inconclusive: 18.5 µM [inhibitor, single point]
CCOC(=O)C1(Cc2cccc(F)c2)CCN(C(=O)c2cnccn2)CC1	inconclusive: 18.5 µM [inhibitor, single point]
CC(Sc1nnc(CNc2cccc3ccccc23)n1-c1ccccc1)C(=O)N/N=C/c1ccco1 (configuration not stated)	inconclusive: 0.0093 µM [inhibitor, full curve, poor fit]
CC(=NCCC(c1ccccc1)c1ccccc1)c1c(O)n(C)c(=O)n(C)c1=O	inconclusive: 1.31 µM [inhibitor, full curve]
CSc1nnc2c(n1)OC(c1ccc(C(=O)O)cc1)N(C(C)=O)c1ccccc1-2 (configuration not stated)	inconclusive: 18.5 µM [inhibitor, single point]
CC(C)CC(CC(C)C)=NNC(=O)c1ccc(CSc2nncn2C)cc1	inconclusive: 11.7 µM [inhibitor, single point]
Cc1cc(=O)n2c(nc3ccccc32)[nH]1	inconclusive: 3.7 µM [inhibitor, partial curve, poor fit]
Cc1noc(NS(=O)(=O)c2ccc(N/C=C\C(=O)c3ccccc3)cc2)c1C	inconclusive: 11.7 µM [inhibitor, partial curve]
CC(C)(C)C(=O)NC(=S)Nc1ccccc1C(=O)Nc1ccccc1	inactive
CCn1ncc(NC(=S)NCCc2ccccc2)c1C(N)=O	inactive
COc1ccc(O)c(C(=O)c2cnn(-c3ccccn3)c2)c1	inactive
C/C(=N\NC(=O)c1ccc(C)cc1)c1c(C)[nH]n(-c2ccccc2)c1=O	active: 14.7 µM
O=C1Nc2ccccc2N=C(c2ccccc2)c2ccccc21	inconclusive: 18.5 µM [inhibitor, single point]
CN(C)S(=O)(=O)c1ccc(F)c(C(=O)Nc2ccccc2C(=O)NC2CC2)c1	inconclusive: 1.31 µM [inhibitor, partial curve, poor fit]
CCC(=O)N1CCc2cc(S(=O)(=O)NCCC(=O)Nc3ccc(OC)cc3)ccc21	inactive
CCCCCCn1c(SCC(=O)c2ccccc2)nc2c1c(=O)[nH]c(=O)n2C	inconclusive: 10.4 µM [inhibitor, single point]
CC(C)CC1(C(=O)NCCc2c[nH]c3ccccc23)C=CCN1C(=O)c1ccccc1 (configuration not stated)	active: 10.4 µM
O=C(Cn1nc2ccccc2n1)N/N=C/c1cc([N+](=O)[O-])ccc1O	inconclusive: 8.28 µM [inhibitor, partial curve, poor fit]
Cc1nc(C(=O)NNC(=O)c2cccc(Cl)c2)c(C(F)(F)F)o1	inconclusive: 10.4 µM [inhibitor, single point]
COC(=O)c1c(-c2ccc3ccccc3c2)csc1NC(=O)Cc1ccc(OC)c(OC)c1	active: 9.28 µM
NC(=O)c1ccsc1NC(=O)CSc1nnc(Nc2ccccc2)s1	inconclusive: 0.928 µM [inhibitor, full curve, poor fit]

From PubChem BioAssay AID504834 (National Center for Advancing Translational Sciences (NCATS), 2011)
